Reference: patent publication US12729225B2, “Non-canonical SWI/SNF complex and uses thereof” (Dana-Farber Cancer Institute, Inc., priority 2018, dated 2026)

Test system: mSWI/SNF complexes
Assay: mSWI/SNF complex purification with HA-tagged baits and mass spectrometry (peptide counts)
Set-up: species or system human
Conditions: 293_HA-BRD7 bait purification, mass spectrometry; for Total: total peptides per co-purified protein; for Unique: unique peptides per co-purified protein

Molecule	Total	Unique
DHX30 (protein, UniProt Q7L2E3 1-1194, looked up) ATP-dependent RNA helicase …: MFSLDSFRKDRAQHRQRQCKLPPPRLPPMCVNPTPGGTISRASRDLLKEFPQPKNLLNSVIGRALGISHAKDKLVYVHTNGPKKKKVTLHIKWPKSVEVEGYGSKKIDAERQAAAAACQLFKGWGLLGPRNELFDAAKYRVLADRFGSPADSWWRPEPTMPPTSWRQLNPESIRPGGPGGLSRSLGREEEEDEEEELEEGTIDVTDFLSMTQQDSHAPLRDSRGSSFEMTDDDSAIRALTQFPLPKNLLAKVIQIATSSSTAKNLMQFHTVGTKTKLSTLTLLWPCPMTFVAKGRRKAEAENKAAALACKKLKSLGLVDRNNEPLTHAMYNLASLRELGETQRRPCTIQVPEPILRKIETFLNHYPVESSWIAPELRLQSDDILPLGKDSGPLSDPITGKPYVPLLEAEEVRLSQSLLELWRRRGPVWQEAPQLPVDPHRDTILNAIEQHPVVVISGDTGCGKTTRIPQLLLERYVTEGRGARCNVIITQPRRISAVSVAQRVSHELGPSLRRNVGFQVRLESKPPSRGGALLFCTVGILLRKLQSNPSLEGVSHVIVDEVHERDVNTDFLLILLKGLQRLNPALRLVLMSATGDNERFSRYFGGCPVIKVPGFMYPVKEHYLEDILAKLGKHQYLHRHRHHESEDECALDLDLVTDLVLHIDARGEPGGILCFLPGWQEIKGVQQRLQEALGMHESKYLILPVHSNIPMMDQKAIFQQPPVGVRKIVLATNIAETSITINDIVHVVDSGLHKEERYDLKTKVSCLETVWVSRANVIQRRGRAGRCQSGFAYHLFPRSRLEKMVPFQVPEILRTPLENLVLQAKIHMPEKTAVEFLSKAVDSPNIKAVDEAVILLQEIGVLDQREYLTTLGQRLAHISTDPRLAKAIVLAAIFRCLHPLLVVVSCLTRDPFSSSLQNRAEVDKVKALLSHDSGSDHLAFVRAVAGWEEVLRWQDRSSRENYLEENLLYAPSLRFIHGLIKQFSENIYEAFLVGKPSDCTLASAQCNEYSEEEELVKGVLMAGLYPNLIQVRQGKVTRQGKFKPNSVTYRTKSGNILLHKSTINREATRLRSRWLTYFMAVKSNGSVFVRDSSQVHPLAVLLLTDGDVHIRDDGRRATISLSDSDLLRLEGDSRTVRLLKELRRALGRMVERSLRSELAALPPSVQEEHGQLLALLAELLRGPCGSFDVRKTADD	1	1
NAT10 (protein, UniProt Q9H0A0 1-1025, looked up) RNA cytidine acetyltransferase: MHRKKVDNRIRILIENGVAERQRSLFVVVGDRGKDQVVILHHMLSKATVKARPSVLWCYKKELGFSSHRKKRMRQLQKKIKNGTLNIKQDDPFELFIAATNIRYCYYNETHKILGNTFGMCVLQDFEALTPNLLARTVETVEGGGLVVILLRTMNSLKQLYTVTMDVHSRYRTEAHQDVVGRFNERFILSLASCKKCLVIDDQLNILPISSHVATMEALPPQTPDESLGPSDLELRELKESLQDTQPVGVLVDCCKTLDQAKAVLKFIEGISEKTLRSTVALTAARGRGKSAALGLAIAGAVAFGYSNIFVTSPSPDNLHTLFEFVFKGFDALQYQEHLDYEIIQSLNPEFNKAVIRVNVFREHRQTIQYIHPADAVKLGQAELVVIDEAAAIPLPLVKSLLGPYLVFMASTINGYEGTGRSLSLKLIQQLRQQSAQSQVSTTAENKTTTTARLASARTLYEVSLQESIRYAPGDAVEKWLNDLLCLDCLNITRIVSGCPLPEACELYYVNRDTLFCYHKASEVFLQRLMALYVASHYKNSPNDLQMLSDAPAHHLFCLLPPVPPTQNALPEVLAVIQVCLEGEISRQSILNSLSRGKKASGDLIPWTVSEQFQDPDFGGLSGGRVVRIAVHPDYQGMGYGSRALQLLQMYYEGRFPCLEEKVLETPQEIHTVSSEAVSLLEEVITPRKDLPPLLLKLNERPAERLDYLGVSYGLTPRLLKFWKRAGFVPVYLRQTPNDLTGEHSCIMLKTLTDEDEADQGGWLAAFWKDFRRRFLALLSYQFSTFSPSLALNIIQNRNMGKPAQPALSREELEALFLPYDLKRLEMYSRNMVDYHLIMDMIPAISRIYFLNQLGDLALSAAQSALLLGIGLQHKSVDQLEKEIELPSGQLMGLFNRIIRKVVKLFNEVQEKAIEEQMVAAKDVVMEPTMKTLSDDLDEAAKEFQEKHKKEVGKLKSMDLSEYIIRGDDEEWNEVLNKAGPNASIISLKSDKKRKLEAKQEPKQSKKLKNRETKNKKDMKLKRKK	1	1
